The list shows a part of the results.
compound: C1=CC2=C(C=CC(=C2)/C=C\3/C(=O)NC(=NCC4=CC=CS4)S3)N=C1; test: log2 fold change, soluble protein after heating vs DMSO (PISA); higher = thermal stabilisation; K562 lysate, 10 uM; active = over 0.2 and 3.5 SD of the protein, either way, in both replicates (recomputed)
Method in brief: (§1)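 K562 pellets were dounce-homogenised in PBS pH 7.4 containing 1 mM MgCl2, and the crude extract, at 1 mg/mL protein, was exposed to 10 μM compound for 30 min. Aliquots were heated for 3 min across 48°C-58°C, pooled, brought to 0.5% NP-40 at 4°C and spun at 21,000xg for 90 min, with the supernatant taken as soluble protein. TMTpro 16plex LC-MS/MS with equalised channel sums quantified that protein. Values are log-two fold changes in thermal stability relative to solvent controls, taken from duplicates.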

Amino acid sequences for entries named in this document (tags omitted). A change or cut given only in a name is not applied to a line headed by its entry.
UniProt Q9H4B0: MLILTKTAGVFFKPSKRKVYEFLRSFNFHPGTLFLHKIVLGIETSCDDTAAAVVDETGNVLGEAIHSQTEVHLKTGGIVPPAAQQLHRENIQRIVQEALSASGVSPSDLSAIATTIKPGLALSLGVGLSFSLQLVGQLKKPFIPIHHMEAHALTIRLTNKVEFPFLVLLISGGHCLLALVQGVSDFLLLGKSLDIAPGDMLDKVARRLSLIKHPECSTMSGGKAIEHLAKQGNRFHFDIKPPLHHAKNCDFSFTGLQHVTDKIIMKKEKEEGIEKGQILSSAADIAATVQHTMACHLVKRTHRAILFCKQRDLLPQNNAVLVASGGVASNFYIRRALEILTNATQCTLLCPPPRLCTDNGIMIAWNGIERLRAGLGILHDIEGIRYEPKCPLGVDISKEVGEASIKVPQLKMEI
UniProt Q9BZ23: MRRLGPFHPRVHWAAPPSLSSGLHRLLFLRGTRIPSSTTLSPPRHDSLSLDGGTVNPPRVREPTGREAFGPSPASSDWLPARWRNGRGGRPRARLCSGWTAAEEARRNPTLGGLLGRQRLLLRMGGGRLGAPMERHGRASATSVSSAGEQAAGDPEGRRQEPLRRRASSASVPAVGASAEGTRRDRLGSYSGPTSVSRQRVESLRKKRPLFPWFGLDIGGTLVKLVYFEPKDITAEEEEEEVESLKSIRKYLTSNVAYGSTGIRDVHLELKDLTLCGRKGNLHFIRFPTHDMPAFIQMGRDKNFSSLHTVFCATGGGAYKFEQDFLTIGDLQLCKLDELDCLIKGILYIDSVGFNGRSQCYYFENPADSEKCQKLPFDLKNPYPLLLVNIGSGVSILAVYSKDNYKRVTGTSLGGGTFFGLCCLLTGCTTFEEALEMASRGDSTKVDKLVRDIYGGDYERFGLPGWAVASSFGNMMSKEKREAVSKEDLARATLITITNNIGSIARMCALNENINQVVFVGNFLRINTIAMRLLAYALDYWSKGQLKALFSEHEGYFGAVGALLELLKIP
UniProt Q8NFH5: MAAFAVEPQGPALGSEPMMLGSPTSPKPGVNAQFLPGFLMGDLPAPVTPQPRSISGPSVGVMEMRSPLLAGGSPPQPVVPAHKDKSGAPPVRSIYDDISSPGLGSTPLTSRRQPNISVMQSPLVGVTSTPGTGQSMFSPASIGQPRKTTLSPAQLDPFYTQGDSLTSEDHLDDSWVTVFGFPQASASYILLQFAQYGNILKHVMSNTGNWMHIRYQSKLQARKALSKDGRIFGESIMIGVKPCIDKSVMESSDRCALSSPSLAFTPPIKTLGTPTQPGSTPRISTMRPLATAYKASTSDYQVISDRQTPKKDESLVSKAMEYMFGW
UniProt O75665: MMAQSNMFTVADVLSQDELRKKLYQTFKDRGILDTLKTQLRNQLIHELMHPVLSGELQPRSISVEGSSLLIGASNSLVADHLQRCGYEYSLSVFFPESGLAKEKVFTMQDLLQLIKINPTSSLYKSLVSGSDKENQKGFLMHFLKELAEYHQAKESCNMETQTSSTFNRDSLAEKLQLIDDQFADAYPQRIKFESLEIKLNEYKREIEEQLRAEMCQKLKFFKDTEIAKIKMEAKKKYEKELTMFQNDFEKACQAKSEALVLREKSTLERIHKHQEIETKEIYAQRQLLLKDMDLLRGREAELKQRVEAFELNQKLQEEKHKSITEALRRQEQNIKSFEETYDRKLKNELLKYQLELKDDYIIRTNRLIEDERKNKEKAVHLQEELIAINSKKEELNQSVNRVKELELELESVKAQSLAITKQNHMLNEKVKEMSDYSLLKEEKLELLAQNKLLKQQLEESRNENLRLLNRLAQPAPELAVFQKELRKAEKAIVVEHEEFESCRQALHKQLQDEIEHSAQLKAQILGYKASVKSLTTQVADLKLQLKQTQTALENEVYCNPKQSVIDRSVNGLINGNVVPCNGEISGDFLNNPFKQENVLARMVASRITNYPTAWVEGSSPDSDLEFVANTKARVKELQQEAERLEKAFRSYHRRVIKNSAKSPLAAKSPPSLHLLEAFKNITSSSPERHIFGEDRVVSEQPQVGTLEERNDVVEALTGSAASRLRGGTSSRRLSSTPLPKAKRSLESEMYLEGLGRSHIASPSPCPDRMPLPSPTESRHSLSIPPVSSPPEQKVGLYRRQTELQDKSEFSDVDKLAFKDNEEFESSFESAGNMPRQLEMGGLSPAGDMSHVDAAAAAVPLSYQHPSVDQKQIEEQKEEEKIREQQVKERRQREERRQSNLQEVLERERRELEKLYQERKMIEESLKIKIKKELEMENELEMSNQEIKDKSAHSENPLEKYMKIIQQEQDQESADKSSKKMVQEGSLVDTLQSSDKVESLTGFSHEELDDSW
UniProt O95340: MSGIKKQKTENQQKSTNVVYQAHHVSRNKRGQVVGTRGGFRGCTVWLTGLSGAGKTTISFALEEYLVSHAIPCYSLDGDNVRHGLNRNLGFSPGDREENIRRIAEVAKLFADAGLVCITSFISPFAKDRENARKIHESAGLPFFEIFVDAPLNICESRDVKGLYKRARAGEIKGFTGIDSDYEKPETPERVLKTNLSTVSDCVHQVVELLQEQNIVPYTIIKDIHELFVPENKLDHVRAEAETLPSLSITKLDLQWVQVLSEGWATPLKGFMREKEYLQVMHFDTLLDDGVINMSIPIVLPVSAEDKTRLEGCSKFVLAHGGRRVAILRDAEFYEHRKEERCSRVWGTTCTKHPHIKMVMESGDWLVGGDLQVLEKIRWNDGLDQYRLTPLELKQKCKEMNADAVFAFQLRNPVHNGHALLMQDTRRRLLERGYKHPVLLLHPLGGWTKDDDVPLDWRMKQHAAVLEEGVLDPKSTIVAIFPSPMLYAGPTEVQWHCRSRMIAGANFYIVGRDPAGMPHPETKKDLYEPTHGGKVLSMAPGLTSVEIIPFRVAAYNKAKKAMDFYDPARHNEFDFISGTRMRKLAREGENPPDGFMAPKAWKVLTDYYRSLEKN
UniProt P47900: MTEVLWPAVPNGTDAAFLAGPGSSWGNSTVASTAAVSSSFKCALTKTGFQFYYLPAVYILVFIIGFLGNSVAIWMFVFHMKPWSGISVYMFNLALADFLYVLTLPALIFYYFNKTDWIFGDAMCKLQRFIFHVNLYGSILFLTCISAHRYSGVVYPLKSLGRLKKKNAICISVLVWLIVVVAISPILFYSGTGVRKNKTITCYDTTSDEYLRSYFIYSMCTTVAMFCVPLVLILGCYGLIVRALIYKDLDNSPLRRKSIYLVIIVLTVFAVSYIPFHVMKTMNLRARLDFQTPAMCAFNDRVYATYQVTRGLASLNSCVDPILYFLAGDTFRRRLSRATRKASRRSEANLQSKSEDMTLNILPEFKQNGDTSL
UniProt Q86U42: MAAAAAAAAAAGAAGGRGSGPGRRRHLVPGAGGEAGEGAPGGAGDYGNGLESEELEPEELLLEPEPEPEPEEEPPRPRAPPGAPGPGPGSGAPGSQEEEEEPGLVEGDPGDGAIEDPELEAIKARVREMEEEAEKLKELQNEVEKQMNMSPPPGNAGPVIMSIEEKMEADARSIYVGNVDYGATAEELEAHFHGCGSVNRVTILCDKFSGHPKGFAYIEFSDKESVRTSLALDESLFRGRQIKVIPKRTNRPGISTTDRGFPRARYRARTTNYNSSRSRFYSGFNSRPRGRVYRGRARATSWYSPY
UniProt O60829: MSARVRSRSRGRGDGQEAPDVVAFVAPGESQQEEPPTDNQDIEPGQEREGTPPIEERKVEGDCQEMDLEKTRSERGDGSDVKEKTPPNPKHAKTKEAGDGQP
UniProt Q96D31, whole entry, looked up: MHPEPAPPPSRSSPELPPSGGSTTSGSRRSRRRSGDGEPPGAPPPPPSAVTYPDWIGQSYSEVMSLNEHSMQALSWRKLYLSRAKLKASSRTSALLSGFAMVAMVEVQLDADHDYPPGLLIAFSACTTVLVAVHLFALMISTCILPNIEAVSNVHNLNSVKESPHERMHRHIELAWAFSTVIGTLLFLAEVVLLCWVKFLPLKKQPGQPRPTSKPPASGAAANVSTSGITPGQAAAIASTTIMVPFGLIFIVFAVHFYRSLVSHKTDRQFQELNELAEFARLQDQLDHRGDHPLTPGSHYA
UniProt O60890: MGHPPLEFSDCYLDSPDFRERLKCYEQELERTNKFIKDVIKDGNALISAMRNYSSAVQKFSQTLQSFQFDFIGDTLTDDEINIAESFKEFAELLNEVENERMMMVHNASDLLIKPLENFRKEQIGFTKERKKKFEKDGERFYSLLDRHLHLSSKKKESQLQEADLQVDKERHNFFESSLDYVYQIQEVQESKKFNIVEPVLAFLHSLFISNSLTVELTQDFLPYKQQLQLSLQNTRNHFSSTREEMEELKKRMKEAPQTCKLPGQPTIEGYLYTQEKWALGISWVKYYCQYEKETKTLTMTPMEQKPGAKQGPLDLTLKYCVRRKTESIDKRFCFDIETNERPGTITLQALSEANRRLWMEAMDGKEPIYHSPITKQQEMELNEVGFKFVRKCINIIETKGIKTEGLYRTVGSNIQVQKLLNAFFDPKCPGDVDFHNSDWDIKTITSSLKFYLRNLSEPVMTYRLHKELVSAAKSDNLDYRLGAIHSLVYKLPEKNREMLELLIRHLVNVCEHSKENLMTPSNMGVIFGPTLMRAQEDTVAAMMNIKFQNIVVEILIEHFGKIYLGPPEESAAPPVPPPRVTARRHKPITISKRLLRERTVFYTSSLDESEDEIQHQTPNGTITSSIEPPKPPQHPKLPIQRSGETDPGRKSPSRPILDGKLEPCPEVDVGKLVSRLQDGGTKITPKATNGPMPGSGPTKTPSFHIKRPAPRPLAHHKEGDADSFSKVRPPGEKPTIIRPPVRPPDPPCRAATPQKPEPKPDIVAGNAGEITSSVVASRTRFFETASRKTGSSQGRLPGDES
UniProt Q86VP3, whole entry, looked up: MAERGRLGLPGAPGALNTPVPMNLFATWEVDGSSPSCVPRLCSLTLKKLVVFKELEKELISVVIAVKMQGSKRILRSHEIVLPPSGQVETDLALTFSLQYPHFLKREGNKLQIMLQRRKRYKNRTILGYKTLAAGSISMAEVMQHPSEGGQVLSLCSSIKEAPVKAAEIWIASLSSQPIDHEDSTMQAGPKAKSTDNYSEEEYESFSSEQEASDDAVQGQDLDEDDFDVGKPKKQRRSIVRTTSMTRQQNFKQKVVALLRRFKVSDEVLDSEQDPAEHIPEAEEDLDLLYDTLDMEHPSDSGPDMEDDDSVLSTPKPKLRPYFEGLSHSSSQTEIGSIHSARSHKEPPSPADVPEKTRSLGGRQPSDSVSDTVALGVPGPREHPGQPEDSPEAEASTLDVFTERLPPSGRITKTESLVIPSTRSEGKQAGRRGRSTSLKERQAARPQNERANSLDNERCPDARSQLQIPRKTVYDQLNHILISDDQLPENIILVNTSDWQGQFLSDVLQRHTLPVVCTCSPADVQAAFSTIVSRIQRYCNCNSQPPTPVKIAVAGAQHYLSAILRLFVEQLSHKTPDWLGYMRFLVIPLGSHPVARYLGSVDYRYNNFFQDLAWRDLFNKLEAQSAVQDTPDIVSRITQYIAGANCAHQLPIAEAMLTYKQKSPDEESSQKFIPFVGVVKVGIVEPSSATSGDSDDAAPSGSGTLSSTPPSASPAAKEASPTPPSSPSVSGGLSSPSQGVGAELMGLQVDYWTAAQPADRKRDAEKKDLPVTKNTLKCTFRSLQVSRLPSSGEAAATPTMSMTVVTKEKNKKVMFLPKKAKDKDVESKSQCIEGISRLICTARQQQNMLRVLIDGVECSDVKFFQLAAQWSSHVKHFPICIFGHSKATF
UniProt Q8N573: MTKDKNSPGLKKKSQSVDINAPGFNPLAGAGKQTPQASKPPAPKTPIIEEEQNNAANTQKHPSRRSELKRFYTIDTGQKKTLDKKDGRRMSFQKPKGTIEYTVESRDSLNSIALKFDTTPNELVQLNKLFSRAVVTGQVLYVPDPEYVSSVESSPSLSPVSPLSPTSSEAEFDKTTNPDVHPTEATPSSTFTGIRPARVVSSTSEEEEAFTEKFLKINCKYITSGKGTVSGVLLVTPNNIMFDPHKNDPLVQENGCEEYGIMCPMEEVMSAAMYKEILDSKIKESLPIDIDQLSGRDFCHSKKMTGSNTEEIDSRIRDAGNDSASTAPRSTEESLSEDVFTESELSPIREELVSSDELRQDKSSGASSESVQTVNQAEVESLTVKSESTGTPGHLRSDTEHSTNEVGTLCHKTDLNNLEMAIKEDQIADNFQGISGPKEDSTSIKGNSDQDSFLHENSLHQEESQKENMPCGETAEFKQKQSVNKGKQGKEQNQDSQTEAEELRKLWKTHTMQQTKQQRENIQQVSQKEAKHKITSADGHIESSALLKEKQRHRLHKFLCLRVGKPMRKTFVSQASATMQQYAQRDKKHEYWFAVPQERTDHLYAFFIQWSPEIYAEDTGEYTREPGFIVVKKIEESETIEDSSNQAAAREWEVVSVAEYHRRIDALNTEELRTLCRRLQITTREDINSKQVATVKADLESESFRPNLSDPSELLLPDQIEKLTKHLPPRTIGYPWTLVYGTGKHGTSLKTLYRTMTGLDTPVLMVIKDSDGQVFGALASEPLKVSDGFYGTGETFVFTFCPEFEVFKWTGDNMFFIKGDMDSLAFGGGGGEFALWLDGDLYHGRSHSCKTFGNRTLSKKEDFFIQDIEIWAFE

log2 fold change, inactive:
OSGEPL1 (UniProt Q9H4B0) -0.157
PANK2 (UniProt Q9BZ23) -0.019
NUP35 (UniProt Q8NFH5) 0.298
OFD1 (UniProt O75665) 0.129
PAPSS2 isoform 2 (UniProt O95340) 0.044
OCIAD1 (UniProt D6RDK6) -0.108

compound: C1=CC2=NC=CN=C2C=C1/C=C/3\C(=O)NC(=O)S3; test: as above
Method in brief: as §1

log2 fold change, inactive:
OCIAD1 (UniProt D6RF01) -0.188
OSGEPL1 (UniProt Q9H4B0) -0.009
P2RY1 (UniProt P47900) 0.148
OSBPL9 (UniProt E9PLH0) 0
PANK2 (UniProt Q9BZ23) 0.011
NXPE1 (UniProt F5H0Y6) -0.056
NUP35 (UniProt Q8NFH5) 0.01
NUP214 isoform 4 (UniProt P35658) -0.023
OFD1 (UniProt O75665) 0.031
PAOX (UniProt Q6QHF9) 0.005
PAPSS2 isoform 2 (UniProt O95340) 0.021
PABPN1 (UniProt Q86U42) 0.08
PABPC1 (UniProt H0YAR2) -0.178
PAGE4 (UniProt O60829) 0.034
OSBPL1A (UniProt Q9BXW6) 0.038
ORAI1 (UniProt Q96D31) 0.198
OPHN1 (UniProt O60890) 0.047

compound: C1=CC=C(C=C1)C2=NC(=C(N2)C3=CC=NC=C3)C4=CC(=C(C=C4)Cl)O; test: as above
Method in brief: as §1

log2 fold change, inactive:
NUP214, A0A494C1F2 -0.265
P2RY1 (UniProt P47900) 0.023
PANK2 (UniProt Q9BZ23) -0.078
PACS2 isoform 2 (UniProt Q86VP3) -0.057
OAS3 (UniProt Q9Y6K5) 0.261
NUP35 (UniProt Q8NFH5) -0.073
NUP214 isoform 4 (UniProt P35658) 0.004
OFD1 (UniProt O75665) 0.049
PAOX (UniProt Q6QHF9) 0.002
PABPN1 (UniProt Q86U42) 0.032
PABPC1 (UniProt H0YAR2) 0.008
PAGE4 (UniProt O60829) 0.015
OXLD1 (UniProt Q5BKU9) 0.06
ORAI1 (UniProt Q96D31) -0.129
OPHN1 (UniProt O60890) -0.032
OXR1 isoform 2 (UniProt Q8N573) 0.004
OAF (UniProt Q86UD1) -0.198

compound: C1=CC=C2C(=C1)C3=NNC4=CC=CC(=C43)C2=O; test: as above
Method in brief: as §1

log2 fold change, inactive:
OSGEPL1 (UniProt Q9H4B0) 0.104
PANK2 (UniProt Q9BZ23) -0.044
NUP35 (UniProt Q8NFH5) -0.314
OFD1 (UniProt O75665) -0.029
PAPSS2 isoform 2 (UniProt O95340) -0.152
OCIAD1 (UniProt D6RDK6) -0.151

compound: C1CCN(C1)C(=O)NC2=CC=CC(=C2)NC3=NC=C(C(=N3)NCCC4=CN=CN4)Br; test: as above
Method in brief: as §1

log2 fold change, inactive:
OSGEPL1 (UniProt Q9H4B0) 0.031
P2RY1 (UniProt P47900) -0.024
PANK2 (UniProt Q9BZ23) -0.008
PACS2 isoform 2 (UniProt Q86VP3) -0.098
OAS3 (UniProt Q9Y6K5) -0.036
NUP35 (UniProt Q8NFH5) 0.205
OFD1 (UniProt O75665) -0.018
OGG1 isoform 4 (UniProt O15527) -0.078
PACRGL (UniProt Q8N7B6) -0.056
PAPSS2 isoform 2 (UniProt O95340) -0.045
PABPN1 (UniProt Q86U42) -0.156
PAGE4 (UniProt O60829) -0.068
OCIAD1 (UniProt D6RDK6) -0.05
ORAI1 (UniProt Q96D31) -0.081
OPHN1 (UniProt O60890) -0.127
ORC1 (UniProt Q13415) 0.216

compound: C1CN(CCC1(CC2=CC=C(C=C2)Cl)N)C3=NC=NC4=C3C=CN4; test: as above
Method in brief: as §1

log2 fold change, inactive:
OSGEPL1 (UniProt Q9H4B0) 0.062
P2RY1 (UniProt P47900) 0.094
PANK2 (UniProt Q9BZ23) -0.06
PACS2 isoform 2 (UniProt Q86VP3) 0.038
OAS3 (UniProt Q9Y6K5) -0.059
NUP35 (UniProt Q8NFH5) -0.028
OFD1 (UniProt O75665) -0.087
OGG1 isoform 4 (UniProt O15527) 0.123
PACRGL (UniProt Q8N7B6) 0.05
PAPSS2 isoform 2 (UniProt O95340) -0.075
PABPN1 (UniProt Q86U42) -0.068
PAGE4 (UniProt O60829) -0.095
OCIAD1 (UniProt D6RDK6) -0.005
ORAI1 (UniProt Q96D31) 0.058
OPHN1 (UniProt O60890) -0.011
ORC1 (UniProt Q13415) 0.05
